Test results: doi:10.1101/2023.09.17.558147
Results are given in words; binding and its absence hold for the method and conditions named. Binding seen in cells or lysates may run through a third protein. These calls come from enrichment with a bait or labelling near it, and not all partners need be listed.

Sequences of proteins named here, by UniProt entry; tags and fusion partners are left off.
UniProt P51979: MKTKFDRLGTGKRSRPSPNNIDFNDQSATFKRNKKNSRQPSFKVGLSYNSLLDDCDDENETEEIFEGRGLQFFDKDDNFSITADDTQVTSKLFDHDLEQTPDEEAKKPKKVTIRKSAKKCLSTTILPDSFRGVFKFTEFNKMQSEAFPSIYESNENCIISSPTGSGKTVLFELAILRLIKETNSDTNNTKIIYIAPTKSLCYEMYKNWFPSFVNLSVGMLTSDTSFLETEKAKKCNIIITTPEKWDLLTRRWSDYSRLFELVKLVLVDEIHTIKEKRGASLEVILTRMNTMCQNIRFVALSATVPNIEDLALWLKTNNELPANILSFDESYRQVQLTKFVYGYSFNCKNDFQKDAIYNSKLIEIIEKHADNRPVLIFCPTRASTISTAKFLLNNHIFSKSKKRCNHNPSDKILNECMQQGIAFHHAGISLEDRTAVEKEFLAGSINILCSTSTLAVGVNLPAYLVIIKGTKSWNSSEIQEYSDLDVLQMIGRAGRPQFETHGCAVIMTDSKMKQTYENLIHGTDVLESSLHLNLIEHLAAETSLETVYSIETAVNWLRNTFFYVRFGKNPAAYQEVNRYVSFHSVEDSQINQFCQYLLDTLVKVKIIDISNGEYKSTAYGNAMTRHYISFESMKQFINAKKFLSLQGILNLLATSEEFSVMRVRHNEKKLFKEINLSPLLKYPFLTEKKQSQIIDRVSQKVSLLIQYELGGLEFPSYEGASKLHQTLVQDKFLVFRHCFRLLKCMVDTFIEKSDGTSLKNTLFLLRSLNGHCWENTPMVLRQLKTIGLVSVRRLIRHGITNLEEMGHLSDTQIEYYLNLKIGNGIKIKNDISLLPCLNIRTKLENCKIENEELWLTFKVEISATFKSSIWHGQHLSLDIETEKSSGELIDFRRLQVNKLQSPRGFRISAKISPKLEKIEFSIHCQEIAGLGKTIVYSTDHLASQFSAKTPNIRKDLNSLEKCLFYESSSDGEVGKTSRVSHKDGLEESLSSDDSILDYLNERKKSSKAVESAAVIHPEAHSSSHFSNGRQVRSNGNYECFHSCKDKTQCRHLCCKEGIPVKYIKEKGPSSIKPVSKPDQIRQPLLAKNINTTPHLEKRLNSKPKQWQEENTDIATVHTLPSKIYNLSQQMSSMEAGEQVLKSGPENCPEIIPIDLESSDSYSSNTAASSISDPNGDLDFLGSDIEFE

What was measured:
Assay in all cases: proximity labelling
[1] = molecular target: T1, Msh4-TurboID (S. cerevisiae) (UniProt P40965)
T1 sequence: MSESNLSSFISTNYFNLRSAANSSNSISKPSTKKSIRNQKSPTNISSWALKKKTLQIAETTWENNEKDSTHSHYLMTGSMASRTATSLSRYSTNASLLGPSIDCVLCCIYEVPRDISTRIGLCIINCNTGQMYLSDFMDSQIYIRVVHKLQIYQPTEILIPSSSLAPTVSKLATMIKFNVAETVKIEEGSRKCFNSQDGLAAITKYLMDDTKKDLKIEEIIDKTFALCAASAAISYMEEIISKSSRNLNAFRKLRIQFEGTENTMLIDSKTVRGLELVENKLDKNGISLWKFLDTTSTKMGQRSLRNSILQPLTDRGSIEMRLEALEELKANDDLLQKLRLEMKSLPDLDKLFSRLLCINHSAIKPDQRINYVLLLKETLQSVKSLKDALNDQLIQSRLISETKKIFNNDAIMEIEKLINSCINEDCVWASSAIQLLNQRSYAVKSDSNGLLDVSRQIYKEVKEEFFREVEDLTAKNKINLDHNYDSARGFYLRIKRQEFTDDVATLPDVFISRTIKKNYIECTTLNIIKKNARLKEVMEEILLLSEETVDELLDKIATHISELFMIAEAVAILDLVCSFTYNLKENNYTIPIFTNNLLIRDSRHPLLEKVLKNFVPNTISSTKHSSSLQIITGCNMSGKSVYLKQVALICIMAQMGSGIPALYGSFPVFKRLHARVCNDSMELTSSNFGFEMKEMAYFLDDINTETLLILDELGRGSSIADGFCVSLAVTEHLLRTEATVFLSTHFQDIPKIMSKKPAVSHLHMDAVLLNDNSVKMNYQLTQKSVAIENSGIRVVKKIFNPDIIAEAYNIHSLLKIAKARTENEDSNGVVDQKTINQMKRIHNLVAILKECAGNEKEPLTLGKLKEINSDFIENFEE

[2] = molecular target: Mer3-TurboID (S. cerevisiae) (UniProt P51979)
[3] = molecular target: T2, Spo16-TurboID (S. cerevisiae) (UniProt P17122)
T2 sequence: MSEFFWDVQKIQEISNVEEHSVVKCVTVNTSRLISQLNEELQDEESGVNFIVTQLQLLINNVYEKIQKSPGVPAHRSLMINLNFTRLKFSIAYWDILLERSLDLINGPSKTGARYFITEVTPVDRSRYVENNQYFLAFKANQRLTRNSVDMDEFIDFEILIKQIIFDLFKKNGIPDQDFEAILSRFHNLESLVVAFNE

[4] = molecular target: T3, Msh5-TurboID (S. cerevisiae) (UniProt Q12175)
T3 sequence: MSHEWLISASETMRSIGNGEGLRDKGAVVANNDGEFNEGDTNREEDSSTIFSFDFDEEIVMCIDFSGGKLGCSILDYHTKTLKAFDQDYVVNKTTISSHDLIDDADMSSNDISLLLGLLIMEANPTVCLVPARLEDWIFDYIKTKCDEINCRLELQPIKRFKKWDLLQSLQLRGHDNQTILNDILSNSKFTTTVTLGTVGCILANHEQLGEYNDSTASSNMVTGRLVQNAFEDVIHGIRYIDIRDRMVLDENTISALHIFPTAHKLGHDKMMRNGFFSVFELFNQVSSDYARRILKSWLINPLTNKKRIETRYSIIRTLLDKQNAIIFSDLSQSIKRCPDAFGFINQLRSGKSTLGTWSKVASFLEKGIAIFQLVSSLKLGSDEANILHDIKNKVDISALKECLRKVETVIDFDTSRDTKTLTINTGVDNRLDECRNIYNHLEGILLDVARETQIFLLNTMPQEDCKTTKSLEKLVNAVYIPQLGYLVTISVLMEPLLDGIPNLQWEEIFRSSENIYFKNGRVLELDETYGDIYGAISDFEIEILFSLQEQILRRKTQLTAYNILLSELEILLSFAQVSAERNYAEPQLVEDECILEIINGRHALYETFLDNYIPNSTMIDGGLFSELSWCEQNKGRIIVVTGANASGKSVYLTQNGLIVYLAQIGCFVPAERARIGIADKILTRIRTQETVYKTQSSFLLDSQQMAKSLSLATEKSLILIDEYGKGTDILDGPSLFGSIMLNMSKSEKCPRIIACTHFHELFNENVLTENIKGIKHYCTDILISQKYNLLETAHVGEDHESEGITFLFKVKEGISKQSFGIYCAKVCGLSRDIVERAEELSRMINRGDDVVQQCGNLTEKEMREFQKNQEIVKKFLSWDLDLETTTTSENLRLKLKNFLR

[5] = molecular target: T4, Zip2-TurboID (S. cerevisiae) (UniProt P53061)
T4 sequence: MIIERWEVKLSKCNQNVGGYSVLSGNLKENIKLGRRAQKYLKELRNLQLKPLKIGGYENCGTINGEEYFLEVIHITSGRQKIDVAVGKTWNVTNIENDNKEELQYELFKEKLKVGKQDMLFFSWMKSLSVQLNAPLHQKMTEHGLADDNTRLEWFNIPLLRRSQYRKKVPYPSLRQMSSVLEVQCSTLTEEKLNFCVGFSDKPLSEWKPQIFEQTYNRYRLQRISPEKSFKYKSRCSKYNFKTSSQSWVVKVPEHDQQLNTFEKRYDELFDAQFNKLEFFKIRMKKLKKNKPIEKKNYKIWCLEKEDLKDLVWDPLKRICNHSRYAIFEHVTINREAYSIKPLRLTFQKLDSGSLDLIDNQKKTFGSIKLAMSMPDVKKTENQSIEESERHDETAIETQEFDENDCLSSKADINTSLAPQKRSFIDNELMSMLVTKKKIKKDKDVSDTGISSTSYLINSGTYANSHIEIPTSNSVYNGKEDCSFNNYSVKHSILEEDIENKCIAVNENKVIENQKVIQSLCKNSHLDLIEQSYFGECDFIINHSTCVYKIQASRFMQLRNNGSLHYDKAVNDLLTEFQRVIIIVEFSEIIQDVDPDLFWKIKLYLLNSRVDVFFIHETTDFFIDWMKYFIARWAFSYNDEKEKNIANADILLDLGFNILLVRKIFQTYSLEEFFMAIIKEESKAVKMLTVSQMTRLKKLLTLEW

Measured: binding

B1: Pif1 helicase (protein, UniProt P07271 46-859)
chain: RSNNFIQAQLKHPSILSKEDLDLLSDSDDWEEPDCIQLETEKQEKKIITDIHKEDPVDKKPMRDKNVMNFINKDSPLSWNDMFKPSIIQPPQLISENSFDQSSQKKSRSTGFKNPLRPALKKESSFDELQNNSISQERSLEMINENEKKKMQFGEKIAVLTQRPSFTELQNDQDDSNLNPHNGVKVKIPICLSKEQESIIKLAENGHNIFYTGSAGTGKSILLREMIKVLKGIYGRENVAVTASTGLAACNIGGITIHSFAGIGLGKGDADKLYKKVRRSRKHLRRWENIGALVVDEISMLDAELLDKLDFIARKIRKNHQPFGGIQLIFCGDFFQLPPVSKDPNRPTKFAFESKAWKEGVKMTIMLQKVFRQRGDVKFIDMLNRMRLGNIDDETEREFKKLSRPLPDDEIIPAELYSTRMEVERANNSRLSKLPGQVHIFNAIDGGALEDEELKERLLQNFLAPKELHLKVGAQVMMVKNLDATLVNGSLGKVIEFMDPETYFCYEALTNDPSMPPEKLETWAENPSKLKAAMEREQSDGEESAVASRKSSVKEGFAKSDIGEPVSPLDSSVFDFMKRVKTDDEVVLENIKRKEQLMQTIHQNSAGKRRLPLVRFKASDMSTRMVLVEPEDWAIEDENEKPLVSRVQLPLMLAWSLSIHKSQGQTLPKVKVDLRRVFEKGQAYVALSRAVSREGLQVLNFDRTRIKAHQKVIDFYLTLSSAESAYKQLEADEQVKKRKLDYAPGPKYKAKSKSKSNSPAPISATTQSNNGIAAMLQRHSRKRFQLKKESNSNQVHSLVSDEPRGQDTEDHILE
binds: all assays above

B2: Rim4 (protein, UniProt P38741 1-713)
chain: MKTEISTADSLRDPPSNGLKADSELVIREDIDQFLPSEVSSLGSDHQNDGEDSDTDSDNFLQDPEDDVDEESTGRGTVTTTSTSTESRGRPSSCIFVASLAAALSDDELCLSVTENFKKYGDLARVKVLRDNANRPYAFVQYNNDHDAKHALIRAQGTLLNGRRLRCEPAKVNRTLYLKNQQSIDFNEISQICEKFGGLEQIVPDRTDNQYTRRYTYPISSANSWFVQFVYRDDAIRAYANLRTDPNWIIEWAQNINVPKNYNLLHKSKFKSSKYHQNNGIINNDGSNNNDNNNSNNNNREDSRRNGDVIEEECGHVHGSDSEEKLTSDGIYDDEDKDSEITIDKRSIFVGQLDKETTREELNRRFSTHGKIQDINLIFKPTNIFAFIKYETEEAAAAALESENHAIFLNKTMHVQYKEVGGRHNRKFSGKNGGSNFNHHQFFSTRSGKTFTGPELNLAPPPINMYRKMSGGSQQESETMMPYMPMGPMPMGPPPPNAASLSDFDMFPPSYSTFMKGMMPLRRKSMPNSWSSPSSKSVNSENESVNGGDENSELPSEIPESSGRYNAANSFTTYNNSSAGNSNNNNNNNNSNSNKSQYKKRYARRSSYGYNEVPPKPYYFQPYYYHPMQYHMGPMGPLHPSQGSAGNHHPYMMVYPMSPPPPSGLDGSMIPPPINVSQSHAANHGSTHVHANEFISNDTGDINEDNKAYSLDY
binds: all assays above

B3: Zip1 (protein, UniProt P31111 1-875)
chain: MSNFFRDSSMGFKPRPNIFAKLRVRDVDSDSSANTVVENSSNCLDVGSSIEGDDTFKKPHKTSTEQELITSMSLSQRNHGYSDDMEIGSPKKTTSTDQYNRILKNDVAAIENDTDEDFEITEVREVSEGVAKETKESHGDPNDSETTLKDSKMHEYTMTNGKAPLHTSINNSSTSSNDVLLEAFTNTQRICSNLKQELQKQQQDNAKLKVRLQSYASNSDKINEKVGKYKSCLETLQERIATLTSHKNNQETKLKDLRQNHQLYQRRISGFKTSIENLNKTINDLGKNKKEADAELMKKGKEIEYLKRELDDCSGQLSEEKIKNSSLIQEMGKNREEMIKSIENFFSEDKAHHLLQFNKFEERVHDLFEKKLQKHFDVAKDTLNVGLRNTTVELSSNTETMLKQQYEDIKENLEQKMSSSKDEMAKTINELSVTQKGLIMGVQEELLTSSGNIQTALVSEMNNTRQELLDDASQTAKNYASLENLVKAYKAEIVQSNEYEERIKHLESERSTLSSQKNQIISSLGTKEAQYEDLVKKLEAKNIEISQISGKEQSLTEKNENLSNELKKVQDQLEKLNNLNITTKSNYENKISSQNEIVKALVSENDTLKQRIQQLVEIKENEQKDHTTKLEAFQKNNEQLQKLNVEVVQLKAHELELEEQNRHLKNCLEKKETGVEESLSDVKTLKQQVIVLKSEKQDITAEKLELQDNLESLEEVTKNLQQKVQSQKRELEQKIKELEEIKNHKRNEPSKKGTQNFTKPSDSPKKNATTSNLFPNNSAAIHSPMKKCPKVDHISKSRINSSKETSKFNDEFDLSSSSNDDLELTNPSPIQIKPVRGKIKKGSNCMKPPISSRKKLLLVEDEDQSLKISKKRRRK
binds: all assays above
